Results are given in words; binding and its absence hold for the method and conditions named. Binding seen in cells or lysates may run through a third protein. Some binding calls cover weakened binding; strength is not graded here.
Tests used:
[1] = target: Parkin coregulated gene (PACRG) protein, mouse (mouse (endogenous in testis)) (UniProt Q9DAK2); assay: co-IP; testicular lysates of 4 to 5-month-old control or MEIG1 Y68A mutant mice; a monoclonal anti-PACRG antibody was used for the pull-down; MEIG1 detected by blot
[2] = target: Parkin coregulated gene (PACRG) protein, mouse (mouse (endogenous in testis)), Q9DAK2; assay: as above; settings: remark: other sources report otherwise

By UniProt entry, the sequences of proteins in these tests, tags left out.
UniProt Q9DAK2: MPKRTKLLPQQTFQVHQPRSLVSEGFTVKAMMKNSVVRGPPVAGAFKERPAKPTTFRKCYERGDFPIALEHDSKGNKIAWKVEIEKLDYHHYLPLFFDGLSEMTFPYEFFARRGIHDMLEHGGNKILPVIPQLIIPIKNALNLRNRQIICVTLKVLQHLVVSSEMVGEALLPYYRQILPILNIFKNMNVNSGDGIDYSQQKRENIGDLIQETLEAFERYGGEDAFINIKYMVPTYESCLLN

| binding [1] | binding [2] | Binder |
| --- | --- | --- |
| binds | – | meiosis-expressed gene 1 (MEIG1) protein, mouse, wild type (protein, UniProt Q61845 1-88) MATSDVKPKSISRAKKWSEEIENLYRFQQAGYRDEIEYKQVKQVAMVDRWPETGYVKKLQRRDNTFFYYNKERECEDKEVHKVKVYVY |
| – | no binding | MEIG1 Y68A mutant protein, mouse, Q61845 1-88 (protein) MATSDVKPKSISRAKKWSEEIENLYRFQQAGYRDEIEYKQVKQVAMVDRWPETGYVKKLQRRDNTFFAYNKERECEDKEVHKVKVYVY |

Source: paper PMC8592874
